In publication PMC11645862:
Numbering of substitutions follows the chain as printed. The exact form of at least one protein or probe is not confirmed. The comparison behind a weaker result is the experiment's own reference, which may not be listed here. Where a protein sequence is shown, tags need not be part of it.

Columns and labels:
Test in all cases: BLI
[1] = biological target: T1, STK19 R206A (xl) (Xenopus laevis) (UniProt A0ABF7TX19); settings: 500 nM STK19; BLI: ELB (10 mM HEPES pH 7.7, 50 mM KCl, 2.5 mM MgCl2, 250 mM sucrose) + 0.05% Tween-20, 5 mg/ml BSA, 30 C; recombinant protein; label: 5'-biotin on strand 1
T1 sequence (looked up, limits assumed): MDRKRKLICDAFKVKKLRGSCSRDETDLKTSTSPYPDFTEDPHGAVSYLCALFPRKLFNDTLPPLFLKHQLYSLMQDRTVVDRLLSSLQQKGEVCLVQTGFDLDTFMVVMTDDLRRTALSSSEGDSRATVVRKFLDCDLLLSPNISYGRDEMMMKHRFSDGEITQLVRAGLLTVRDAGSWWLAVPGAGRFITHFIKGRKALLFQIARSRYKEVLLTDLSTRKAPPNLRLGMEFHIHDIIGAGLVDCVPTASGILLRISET

[2] = biological target: T2, STK19 R207A (xl) (Xenopus laevis) (UniProt A0ABF7TX19); settings: 500 nM STK19; BLI: ELB (10 mM HEPES pH 7.7, 50 mM KCl, 2.5 mM MgCl2, 250 mM sucrose) + 0.05% Tween-20, 5 mg/ml BSA, 30 C; recombinant protein; label: 5'-biotin on strand 1
T2 sequence (looked up, limits assumed): T1 sequence (looked up, limits assumed) with A206R, R207A

[3] = biological target: T3, STK19 RR-AA (xl) R206A,R207A (Xenopus laevis) (UniProt A0ABF7TX19); settings: 500 nM STK19, strongly impaired; BLI: ELB (10 mM HEPES pH 7.7, 50 mM KCl, 2.5 mM MgCl2, 250 mM sucrose) + 0.05% Tween-20, 5 mg/ml BSA, 30 C; recombinant …; label: 5'-biotin on strand 1
T3 sequence (looked up, limits assumed): T1 sequence (looked up, limits assumed) with R207A

Measured: binding result

TATGGACAGCAAGC (double strand) [BLI 14-mer duplex (oTM626/oTM629)]
binds more weakly: [1] | [2] | [3]
